In PMC4967961:
For at least one entry, the source does not settle the construct or the ends of the probe. Weaker means in comparison with the reference protein, sequence or condition of that experiment.

Chains of the proteins cited; added tags and fusions are not shown. Residues count along the entry.
UniProt Q15717, 1-243, stated change not applied: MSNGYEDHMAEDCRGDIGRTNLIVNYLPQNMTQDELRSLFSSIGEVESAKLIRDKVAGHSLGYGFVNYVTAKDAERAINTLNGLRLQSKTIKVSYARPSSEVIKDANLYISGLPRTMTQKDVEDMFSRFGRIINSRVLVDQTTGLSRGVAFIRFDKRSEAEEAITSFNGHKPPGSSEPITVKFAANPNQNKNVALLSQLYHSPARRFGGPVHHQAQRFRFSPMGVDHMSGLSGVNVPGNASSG

Molecular target: HuRΔIII (ΔRRMIII) (UniProt Q15717)
Experiment: EMSA
Conditions: 100 nM protein; EMSA: 20 mM Tris-HCl pH 7.8, 150 mM KCl, 2 mM MgCl2, 0.1% Triton X-100, 0.5 mM DTT, heparin 5 mg/ml, BSA 1 mg/ml, 10% glycerol, on ice 15 min; 6% native PAGE, 0.5x TBE; recombinant protein; protein details: His; label: 5' 32P (end-labelled)

UGGAGUGUGACAAUGGUGUUUG [miR-122 (5p)]
binding result: binds more weakly
